Values quoted from earlier work as cited in patent US7030118B2, “Pyrrolotriazinone compounds and their use to treat diseases” (Bristol-Myers Squibb Company, priority 2002, dated 2006).
For at least one compound, name, drawing or mass did not settle the structure.

## CCOC(=O)C1=C(C)NC(=S)NC1c1cccc(O)c1 (centres unmarked) [monastrol]
Related kinesin motor
  effect upon the related kinesin motor: no apparent effect
cells
  cell cycle arrest in mitosis, reversibility: reversible
